According to PMC12705663:
No constants are given. Whether binding was seen depends on the method and setting. Binding seen in cells or lysates may run through a third protein. A yes stands for co-enrichment or nearness to the bait. Other partners may have been found.

By UniProt entry, the sequences of proteins in these tests, tags left out. Residues count along the entry.
UniProt P21802, residues 22-821: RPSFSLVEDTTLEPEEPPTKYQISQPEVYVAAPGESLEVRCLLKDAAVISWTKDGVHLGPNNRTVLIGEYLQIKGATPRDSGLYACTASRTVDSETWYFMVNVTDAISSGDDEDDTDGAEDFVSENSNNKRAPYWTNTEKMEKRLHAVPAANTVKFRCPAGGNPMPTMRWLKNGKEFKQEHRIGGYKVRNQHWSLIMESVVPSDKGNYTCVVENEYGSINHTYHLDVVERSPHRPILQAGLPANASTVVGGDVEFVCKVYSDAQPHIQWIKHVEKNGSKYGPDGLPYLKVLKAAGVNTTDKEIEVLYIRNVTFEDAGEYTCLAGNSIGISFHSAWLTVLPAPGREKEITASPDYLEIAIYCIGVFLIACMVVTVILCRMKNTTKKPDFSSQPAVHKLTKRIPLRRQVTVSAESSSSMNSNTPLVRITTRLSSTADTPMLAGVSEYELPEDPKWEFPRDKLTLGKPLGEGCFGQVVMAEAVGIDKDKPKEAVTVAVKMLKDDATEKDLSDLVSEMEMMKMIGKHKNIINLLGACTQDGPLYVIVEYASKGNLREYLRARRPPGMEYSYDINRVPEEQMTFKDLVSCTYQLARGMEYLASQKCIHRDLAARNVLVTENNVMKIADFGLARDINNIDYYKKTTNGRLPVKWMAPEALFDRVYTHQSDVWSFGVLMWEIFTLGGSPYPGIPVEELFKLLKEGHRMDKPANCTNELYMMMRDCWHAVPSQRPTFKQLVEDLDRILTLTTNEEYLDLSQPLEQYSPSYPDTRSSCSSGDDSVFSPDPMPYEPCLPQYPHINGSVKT
UniProt P22607, residues 23-806: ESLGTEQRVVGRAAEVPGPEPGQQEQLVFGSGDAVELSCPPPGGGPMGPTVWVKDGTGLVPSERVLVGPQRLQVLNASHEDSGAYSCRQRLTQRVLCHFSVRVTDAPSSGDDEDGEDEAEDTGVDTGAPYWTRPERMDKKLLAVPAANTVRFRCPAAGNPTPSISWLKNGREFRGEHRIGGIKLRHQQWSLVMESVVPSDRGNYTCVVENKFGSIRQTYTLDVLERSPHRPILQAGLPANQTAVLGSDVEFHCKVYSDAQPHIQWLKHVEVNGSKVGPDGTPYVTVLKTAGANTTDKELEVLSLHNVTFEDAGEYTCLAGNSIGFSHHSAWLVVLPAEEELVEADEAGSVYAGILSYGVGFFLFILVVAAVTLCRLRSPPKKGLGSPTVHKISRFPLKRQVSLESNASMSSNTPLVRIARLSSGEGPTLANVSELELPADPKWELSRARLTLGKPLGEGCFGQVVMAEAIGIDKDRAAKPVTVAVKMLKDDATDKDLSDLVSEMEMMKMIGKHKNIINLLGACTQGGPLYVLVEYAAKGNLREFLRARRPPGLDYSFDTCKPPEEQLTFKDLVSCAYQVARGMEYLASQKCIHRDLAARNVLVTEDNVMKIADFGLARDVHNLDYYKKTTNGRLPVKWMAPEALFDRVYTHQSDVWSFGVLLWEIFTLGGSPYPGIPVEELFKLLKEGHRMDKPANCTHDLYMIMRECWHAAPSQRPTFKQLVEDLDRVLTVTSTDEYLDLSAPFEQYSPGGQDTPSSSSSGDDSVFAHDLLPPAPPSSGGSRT

B1: fibroblast receptor substrate 2 (protein, UniProt Q8WU20 1-508)
chain: MGSCCSCPDKDTVPDNHRNKFKVINVDDDGNELGSGIMELTDTELILYTRKRDSVKWHYLCLRRYGYDSNLFSFESGRRCQTGQGIFAFKCARAEELFNMLQEIMQNNSINVVEEPVVERNNHQTELEVPRTPRTPTTPGFAAQNLPNGYPRYPSFGDASSHPSSRHPSVGSARLPSVGEESTHPLLVAEEQVHTYVNTTGVQEERKNRTSVHVPLEARVSNAESSTPKEEPSSIEDRDPQILLEPEGVKFVLGPTPVQKQLMEKEKLEQLGRDQVSGSGANNTEWDTGYDSDERRDAPSVNKLVYENINGLSIPSASGVRRGRLTSTSTSDTQNINNSAQRRTALLNYENLPSLPPVWEARKLSRDEDDNLGPKTPSLNGYHNNLDPMHNYVNTENVTVPASAHKIEYSRRRDCTPTVFNFDIRRPSLEHRQLNYIQVDLEGGSDSDNPQTPKTPTTPLPQTPTRRTELYAVIDIERTAAMSNLQKALPRDDGTSRKTRHNSTDLPM

biological target: FGFR1 WT-BirA*-Flag (human) (UniProt P11362); assay: proximity labelling; BioID-MS: FGFR1-BirA*-Flag baits in Flp-In T-REx HEK293 cells, tetracycline and 50 uM biotin; biotinylated preys isolated by streptavidin pull-down and identified by MS; SAINTexpress AvgP >= 0.95, AvgSpec >= 5

| binding | Molecule |
| --- | --- |
| binds | FGFR2 (from UniProt P21802 22-821) (receptor) |
| binds | FGFR3 (from UniProt P22607 23-806) (receptor) |
| binds | protein tyrosine phosphatase non-receptor type 11 (from UniProt Q06124 1-593) (enzyme) |
| binds | B1 |
